# PubChem BioAssay AID1671195 | Yale University, 2021
# Test: 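Regulators of LDL receptor activity judged by labelled LDL uptake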 (primary screen)
# System: human Huh7 hepatoma cells
# Knock-down reagent: siRNA pool against human genes, 18 nM
# Time to read-out: about 2 to 2.5 days of knockdown, then 8 h LDL uptake
# Treatment: DiI-labelled LDL at 30 µg/ml for 8 h, in lipoprotein-deficient serum medium
# Detection: 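Fluorescent LDL signal imaged in cells, scaled to the plate median, robust z-score for each replicate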
# Scale: robust z-score: higher = more LDL uptake after knockdown
# Active means: 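a gene counts as active if at least two replicate z-scores exceed ±2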
# Shown is an unselected part of about 22,000 reagents. In the full data, about 1,510 (6.9%) were called active. 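Active includes knockdowns raising or lowering LDL uptake; positive z-scores mean more uptake, negative mean less.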 Unmarked entries are inactive. No sequences are given here.
gene,"robust z-score, replicate 1","robust z-score, replicate 2","robust z-score, replicate 3"
FAM120AOS,2.99 (active),5.69,4.4
UBE2C,-0.235,-0.474,0.641
LOC390877,-0.389,-0.195,-0.608
SLC20A2,-0.764,-1.31,-1.04
STRC,-1.04,-0.956,-0.309
JAK3,1.8,1.76,1.61
UHMK1,2.13 (active),3.53,1.72
SLC5A1,-0.689,-0.693,-0.694
NAB1,1.62,1.05,1.03
NUDT10,0.35,0.372,0.981
SCNN1D,0.0775,-0.66,0.928
LOC441468 (retired record),0.785,-0.296,-0.612
LOC441141 (retired record),-1.08,-1.4,-1.25
SLC4A7,0.0929,-0.216,0.261
FAM110B,-0.748,-0.405,-1
ZDHHC11,-0.252,-0.307,-0.235
CDC42SE2,-0.298,0.392,0.275
LOC388308 (retired record),0.752,0.522,0.0177
KRT28,-0.142,0.441,-0.0902
HIPK4,-0.248,-0.438,-0.55
KCNF1,-0.157,0.485,0.141
GLMN,0.428,0.753,0.266
DENND2A,1.21,0.547,0.32
SERTM1,-0.473,-0.0937,0.0761
ARHGEF1,0.454,0.0607,0.284
HECTD3,1.01,1.01,1.11
OR4Q3,-0.973,-0.797,-0.78
CCDC12,0.709,0.69,-0.168
CHSY1,-0.117,-0.191,0.179
LMTK3,1.59,0.335,0.477
SH2D2A,1.22,-1.9,-0.84
MISP,-2.35 (active),-2.79,-2.66
LOC388530 (retired record),-0.5,-0.619,-0.536
FKBP6P2,-1.15,-1.19,-1.22
KCNN3,-1.91 (active),-2.49,-1.97
ZNF41,-0.577,-1.13,-0.389
LOC440990 (retired record),0.368,0.485,0.34
HSD17B8,0.522,0.617,0.622
CD8B,-0.0052,-0.0359,-0.395
AMDHD2,-0.241,0.896,-0.613
LOC139263 (retired record),-0.0354,1.25,1.18
PCBP4,-1.65,-1.18,-1.71
LCP1,2.03,1.03,1.48
ERVMER61-1,-0.726,-0.685,-0.491
TRMT11,-0.224,0.86,-0.0192
INHBE,-0.676,-0.51,-0.342
UNQ9370 (retired record),0.0561,2.11,0.831
PANX3,-0.203,0.785,0.556
TMIGD2,-0.136,-0.106,0.677
OR6C4,0.508,-0.0101,0.4
AHR,1.84,1.72,3.08
TPRN,2.48 (active),1.38,1.92
CCN1,0.00657,0.552,1.38
CYB5D1,0.735,-0.335,-0.305
NINJ2,-0.565,0.674,0.772
ZNF674-AS1,-0.119,0.0402,0.00435
ZBTB32,-0.274,-0.965,-0.445
LOC388853 (retired record),0.831,1.46,1.4
MRPS9,-0.37,-0.738,-0.603
ZNF285,-0.452,-0.385,-0.222
HAS3,0.198,0.244,-0.13
LOC442339 (retired record),0.372,0.073,0.161
ATXN2L,0.22,-0.356,1.37
DMRTC2,-0.325,-0.885,-2.19
LOC388604 (retired record),-0.812,-0.373,-0.544
PRRC2C,-0.425,1.16,-0.144
DMC1,-0.565,0.214,-0.71
PMAIP1,-0.777,-0.427,0.309
PFKFB1,-0.124,0.187,0.0858
SLC6A10P,-0.61,-0.885,-0.685
FOLR3,-0.452,-0.545,-0.372
LYZL6,-1.07,-1.01,1.37
PTER,0.811,1.74,0.583
MLKL,-1.47,-1.87,-2.02
LOC441078 (retired record),0.0254,-0.0459,-0.198
ARB2BP,3.04 (active),2.09,2.44
ATF1,0.58,-0.541,0.125
HOPX,-1.81,-1.25,-0.39
SACS,-0.542,-0.742,-0.802
FAM66C,0.909,-0.05,-0.0999
LRRN4,1.63,1.16,1.04
ZNF781,1.91 (active),1.75,2.54
ABCA10,-0.294,0.399,0.241
CCDC91,0.683,0.132,0.54
RPRD1B,-0.0331,-0.16,0.185
PCYT1B,0.235,0.124,0.791
MTMR11,-1.13,-0.315,-1.72
